Measurements: article PMC9497199
Results are given in words; binding and its absence hold for the method and conditions named. In cells and extracts the contact can be indirect. Some entries that bind do so weakly or less than the wild type.

Sequences of proteins named here, by UniProt entry; tags and fusion partners are left off.
UniProt Q99708: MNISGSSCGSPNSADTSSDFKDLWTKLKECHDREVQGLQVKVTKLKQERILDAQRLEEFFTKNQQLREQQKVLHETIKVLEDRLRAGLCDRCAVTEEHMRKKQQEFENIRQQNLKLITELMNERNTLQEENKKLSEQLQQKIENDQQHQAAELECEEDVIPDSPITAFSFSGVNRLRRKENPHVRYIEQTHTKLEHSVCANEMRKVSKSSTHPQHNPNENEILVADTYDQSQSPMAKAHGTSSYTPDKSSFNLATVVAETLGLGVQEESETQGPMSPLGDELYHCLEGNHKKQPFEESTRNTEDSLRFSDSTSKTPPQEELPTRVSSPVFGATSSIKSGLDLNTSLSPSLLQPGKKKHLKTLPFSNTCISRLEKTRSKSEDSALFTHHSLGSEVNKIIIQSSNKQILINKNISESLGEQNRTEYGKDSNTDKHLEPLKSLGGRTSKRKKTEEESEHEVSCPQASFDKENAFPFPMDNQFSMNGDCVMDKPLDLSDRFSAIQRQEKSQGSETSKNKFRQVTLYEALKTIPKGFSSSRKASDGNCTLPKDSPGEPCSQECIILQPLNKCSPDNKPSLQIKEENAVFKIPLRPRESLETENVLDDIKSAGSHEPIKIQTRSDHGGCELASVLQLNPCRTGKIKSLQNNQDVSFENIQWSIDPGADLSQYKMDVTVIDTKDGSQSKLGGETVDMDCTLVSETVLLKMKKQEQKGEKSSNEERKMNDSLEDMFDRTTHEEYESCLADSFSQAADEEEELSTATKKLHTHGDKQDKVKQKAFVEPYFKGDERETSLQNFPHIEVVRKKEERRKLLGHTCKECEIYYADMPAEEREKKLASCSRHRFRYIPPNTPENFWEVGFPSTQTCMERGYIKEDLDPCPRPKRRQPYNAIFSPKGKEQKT
UniProt Q9ULW0: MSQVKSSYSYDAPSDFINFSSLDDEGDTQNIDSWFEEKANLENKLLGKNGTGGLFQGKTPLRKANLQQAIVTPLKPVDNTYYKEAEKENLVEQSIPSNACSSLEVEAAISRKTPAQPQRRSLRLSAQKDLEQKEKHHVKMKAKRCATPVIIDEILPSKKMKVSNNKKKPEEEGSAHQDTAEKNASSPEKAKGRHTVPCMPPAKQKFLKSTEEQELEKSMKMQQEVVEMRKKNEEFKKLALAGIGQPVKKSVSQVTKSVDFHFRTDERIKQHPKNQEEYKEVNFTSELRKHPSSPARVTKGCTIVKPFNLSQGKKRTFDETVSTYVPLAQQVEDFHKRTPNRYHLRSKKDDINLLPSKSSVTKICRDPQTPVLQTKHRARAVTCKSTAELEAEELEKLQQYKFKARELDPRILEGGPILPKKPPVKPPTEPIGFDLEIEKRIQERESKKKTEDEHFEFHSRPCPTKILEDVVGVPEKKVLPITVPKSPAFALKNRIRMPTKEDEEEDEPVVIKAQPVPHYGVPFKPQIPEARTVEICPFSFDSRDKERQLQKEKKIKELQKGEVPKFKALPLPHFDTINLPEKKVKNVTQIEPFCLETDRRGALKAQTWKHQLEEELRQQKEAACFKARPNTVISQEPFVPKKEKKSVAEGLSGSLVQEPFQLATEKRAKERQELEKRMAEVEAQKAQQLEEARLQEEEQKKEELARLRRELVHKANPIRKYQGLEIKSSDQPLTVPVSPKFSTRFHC

Key:
[1] = molecular target: Flag-tagged full length CtIP (human) (UniProt Q99708); experiment: co-IP; HEK293T cells co-transfected with Flag-CtIP and HA-TPX2; 1 mg total lysate immunoprecipitated with anti-Flag or anti-HA antibody, protein G sepharose, 4 °C; immunoblot
[2] = molecular target: endogenous CtIP (human (endogenous in HEK293T)) (UniProt Q99708); experiment: co-IP; endogenous proteins; lysates of HEK293T cells transfected with control siRNA or CtIP siRNA immunoprecipitated with anti-CtIP or anti-TPX2 antibody; immunoblot

Row | binding [1] | binding [2] | Substance
1 | binds |  | HA-tagged full length TPX2 (from UniProt Q9ULW0 1-747)
2 |  | binds | endogenous TPX2 (from UniProt Q9ULW0 1-747)
